## Percent effect of library compounds

Data taken from ChEMBL document CHEMBL3988442, “University of Dundee, Small-Polar-MMV Screening Library” (2021).

A: 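Phenotypic screen: M. tuberculosis growth, glucose 7H9 medium, 3 days; the read-out is not stated. Tested at 500 µM. The record gives no direction; compounds that gave an IC50 in retests scored well above the rest, so higher reads as more growth inhibition. Of about 18,000 compounds tested this way, about 1,400 (7.9%) reached 50% or more in at least one test.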
B: 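Whole-cell growth test on Mycobacterium tuberculosis, read after 4 days in a medium based on cholesterol and the lipid DPPC; the read-out is not stated. Compounds at 500 µM. The record gives no direction; compounds that gave an IC50 in retests scored well above the rest, so higher reads as more growth inhibition. Size under these conditions: about 18,000 compounds, about 900 of them at 50% or above in at least one test.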

The filed quantity is “Percent Effect” (%). How 0% and 100% were set is not recorded. Most values in the screen are low, and negative values occur. Compounds were drawn at random from those tested, without regard to their results.

| # | compound | A | B |
|---|---|---|---|
| 1 | `Cc1cccc(N2CCC(N(C)CCCO)CC2)n1` | 16.87 | 31.66 |
| 2 | `Cn1ccnc1C1CCN(C(=O)[C@H]2CCCN2)CC1` | 3.899 | -5.524 |
| 3 | `CC(C)CCOCCSc1nnnn1C` | 59.81 | 83.91 |
| 4 | `COc1ccc(OCCSc2n[nH]c(N)n2)cc1` | 65.58 | 68.29 |
| 5 | `CC1=NN(C(=O)Cn2cc(C)cn2)C(O)(C(F)F)C1` (centres unmarked) | 16.11 | 21.91 |
| 6 | `CCC(CC)C(=O)Nc1ccon1` | 28.18 | 11.9 |
| 7 | `Cc1ccc(C(=O)N(C)C(C)CN)cc1Cl` (centres unmarked) | 20.11 | 11.34 |
| 8 | `CSCCC(O)C(=O)NCCc1scnc1C` (centres unmarked) | -2.294 | -8.585 |
| 9 | `CCC(=O)Nc1ccc2c(c1)CCC(=O)N2CCOC` | -3.901 | -18.74 |
| 10 | `Cc1nc(Cn2cc(S(=O)(=O)N(C)C)ccc2=O)cs1` | 58.36 | 18.42 |
| 11 | `O=C(CCn1ccccc1=O)NCc1ccco1` | 26.62 | -6.871 |
| 12 | `O=C(Cc1cccc(F)c1)NCCn1ccnc1` | 10.97 | 4.789 |
| 13 | `c1ccc(C2=NN=C(NC3CC3)SC2)cc1` | 67.67 | 61.78 |
| 14 | `CCCNC(=O)CN(C)Cc1ccco1` | 45.61 | 34.68 |
| 15 | `COc1ccccc1OCC(C)CN` (centres unmarked) | 85.67 | 77.33 |
| 16 | `Cc1ccc(CN(C)C(=O)C2CCCN(C(N)=O)C2)o1` (centres unmarked) | 19.2 | 4.798 |
| 17 | `Cc1cccc(C(=O)NCC(C)N2CCOCC2)n1` (centres unmarked) | 10.69 | 10.63 |
| 18 | `Cc1nnc2ccc(NC3CCCOC3)nn12` (centres unmarked) | -14.32 | -4.903 |
| 19 | `CC(CN)N(C)C(=O)OC(C)(C)C` (centres unmarked) | 17.1 | 6.833 |
| 20 | `Cc1cc(C(=O)N2CC(N3CCOCC3)C2)ccc1O` | 1.696 | 2.205 |
| 21 | `C[C@@H]1CN(C(=O)Nc2ccnn2C)C[C@H](C)O1` | 4.89 | 4.425 |
| 22 | `O=C(Nc1ccccc1C(=O)NCCO)c1ccco1` | 13.07 | -3.864 |
| 23 | `Brc1cncc(NCc2ncc[nH]2)c1` | 29.82 | 57.06 |
| 24 | `NC(=O)C(NC(=O)C1CC=CC1)c1ccc(F)cc1` (centres unmarked) | 19.83 | 16.03 |
| 25 | `CC(CN(CCO)Cc1nccn1C)N1CCCC1` (centres unmarked) | -31.38 | -38.89 |
| 26 | `CCCc1ncncc1C(=O)NCc1cnc(C)cn1` | 0.5911 | -4.578 |
| 27 | `O[C@@H]1CC(F)(F)C[C@H]1O` | 8.481 | -7.849 |
| 28 | `CN(CCOc1ccccc1C#N)CC(N)=O` | 6.418 | 1.339 |
| 29 | `CCc1nc(CCNC(=O)[C@@H](N)C(C)(C)C)no1` | 12.63 | 13.88 |
| 30 | `CC(C)(C)OC(=O)N1CC2(CCC(CN)O2)C1` (centres unmarked) | 67.7 | 33.17 |
| 31 | `O=C(COc1ccccc1Br)Nc1c[nH]c(=O)[nH]c1=O` | 0.3004 | -2.01 |
| 32 | `CC(C)NC(=O)c1ccc(N2CCCCC2=O)cc1` | 80.65 | 21.01 |
| 33 | `COc1ccc(CN2CCN(C)CC2)c(OC)c1OC` | -11.61 | -8.812 |
| 34 | `COCC(C)NCCNc1cc(C)ccn1` (centres unmarked) | 17.7 | 37.96 |
| 35 | `CC(=O)N1CCN(CCNC(=O)Nc2cn[nH]c2)CC1` | 11.07 | 0.6435 |
| 36 | `COCCNCCNC(=O)c1ccc2c(c1)nnn2C` | -2.651 | -9.265 |
| 37 | `COc1ccc(NC(=O)C(C)S(C)(=O)=O)cn1` (centres unmarked) | 0.05264 | -25.57 |
| 38 | `CNCCCC(=O)Nc1cccc2c1OCCO2` | 13.97 | 13.88 |
| 39 | `CCNCc1ccc(C#N)cc1F` | -0.9022 | -2.918 |
| 40 | `Cc1nnc2ccc(C(=O)NC(C)C)cn12` | -0.6768 | -23.04 |
| 41 | `CCOc1c(CNc2nc[nH]n2)cccc1OC` | 29 | 14.25 |
| 42 | `Cc1ccc(C(=O)N(C)C)cn1` | -11.72 | -9.53 |
| 43 | `Cn1cc(CNC(=O)c2cccc(I)c2)cn1` | 56.39 | 31.85 |
| 44 | `CCc1noc(C)c1C(=O)N1CCC2(CC1)OCCO2` | 2.396 | 16.31 |
| 45 | `Cc1ccccc1NC(=O)CCN1C(=O)CCC1=O` | 8.471 | -1.353 |
| 46 | `O=C(NCc1cc[nH]n1)c1ccccc1C(F)(F)F` | 5.442 | -2.95 |
| 47 | `CCc1ccc(CN(C)C(=O)COC(C)C)nc1` | 19.18 | 11.24 |
| 48 | `Cc1ccc(OCCN2CCOCC2)cc1` | 17.89 | 20.06 |
| 49 | `CC(C)NC(=O)NCC12CCCC=C1NC(=O)CC2` (centres unmarked) | -7.496 | -23.82 |
| 50 | `N#Cc1ccc(OCC(O)CN2CCC(O)CC2)cc1` (centres unmarked) | 3.434 | -1.798 |
| 51 | `CC(C)CNC(=O)CNC(=O)c1ccc(Br)c(O)c1` | -2.768 | -11.15 |
| 52 | `NCC(=O)N1CCCC(CCc2ccc(F)c(F)c2)C1` (centres unmarked) | 91.74 | 89.66 |
| 53 | `CCCN1CCCN(C(=O)CCS(C)(=O)=O)CC1` | 11.46 | 25.22 |
| 54 | `CCc1nc(C2(N)CCCC2)no1` | 7.269 | 8.345 |
| 55 | `Cc1cc(CN2CCc3ncnc(N(C)C)c3C2)on1` | -5.899 | -15.58 |
| 56 | `NCC(=O)Nc1ccc(-n2cccn2)cc1` | 21.04 | 18.11 |
| 57 | `CN(C)C(CNc1ncccc1F)C1CC1` (centres unmarked) | -3.032 | -2.447 |
| 58 | `COC(=O)N1CCN(c2ncccn2)CC1` | 20.34 | 20.64 |
| 59 | `CN(C)C(=O)Cn1ncc2ccccc21` | 3.049 | -5.767 |

6 of the entries, repeated:

{"compound": "CNCCCC(=O)Nc1cccc2c1OCCO2", "A": 13.97, "B": 13.88}
{"compound": "NCC(=O)N1CCCC(CCc2ccc(F)c(F)c2)C1", "stereo": "centres unmarked", "A": 91.74, "B": 89.66}
{"compound": "Cc1ccc(CN(C)C(=O)C2CCCN(C(N)=O)C2)o1", "stereo": "centres unmarked", "A": 19.2, "B": 4.798}
{"compound": "Cc1ccc(OCCN2CCOCC2)cc1", "A": 17.89, "B": 20.06}
{"compound": "Cc1ccc(C(=O)N(C)C(C)CN)cc1Cl", "stereo": "centres unmarked", "A": 20.11, "B": 11.34}
{"compound": "CN(C)C(CNc1ncccc1F)C1CC1", "stereo": "centres unmarked", "A": -3.032, "B": -2.447}